Experimental data reported in patent US10780139B1, “Hypericum revolutum extract as a vasodilator” (King Abdulaziz University, priority 2020, dated 2020).
At least one compound was matched to its structure with a doubt left.

Tested on: vascular NO production (isolated aorta)
Assay: NO production from isolated aorta, fluorescence probe DAF-FM
Parameters: species or system Wistar rats
Conditions: 10 μM; DAF-FM 2.5 μM; 37° C.; FIG. 9
Procedure: Induction of intracellular NO production from the isolated aorta by the total extract, fraction I or the pure isolated compounds was investigated using the fluorescence probe DAF-FM as described in previous work with some modifications (Ghareib et al., 2015). Similar to previous technique, the thoracic aorta was excised, cleaned of fats, and cut into approximately 6 mm pieces. Each piece was added to a separate well in a 96-well black plate, kept in dim light, containing KHB/DAF-FM (2.5 μM) mixture (37° C.) and prepared directly before commencement of the procedure. After 3 minutes, 100 μl were carefully drawn and transferred to the adjacent column of wells after which 10 μM ACh was added to one of the aortic segments and 10 μg/ml of the total extract or fraction I or 10 μM of the pure isolated compounds was added to the other wells. Again after 3 minutes, 100 μl were drawn from the wells with the aortae and transferred to the next column of wells. For the blank, a row was kept without an aorta for each concentration of ACh was treated in the same manner. The fluorescence intensity for the withdrawn volumes (and not the column containing the aortae) was then measured at λex=485 nm and […] with the use of Monochromator SPECTRAMAX® M3 plate reader (Molecular Devices, Sunnyvale, Calif., USA).

CC(=O)OCC[N+](C)(C)C [Ach, acetyl choline, reference compound]
vascular NO production (DAF-FM fluorescence) compared with control: significant (p<0.05) NO production
